Earlier results, collected in patent US9738660B2, “Selective inhibitors for protein kinases and pharmaceutical composition and use thereof” (National Chiao Tung University, priority 2014, dated 2017).
At least one compound was matched to its structure with a doubt left.

System: 384 tested protein kinases
Settings: background statement; cited from earlier work

Structure (SMILES): CCN(CC)CCNC(=O)c1c(C)[nH]c(/C=C2\C(=O)Nc3ccc(F)cc32)c1C [Sunitinib]
- number of protein kinases inhibited out of the 384 tested: 259
- percentage of the 384 tested protein kinases inhibited: ~68%
